A negative result means that nothing was seen under these conditions. Construct, isoform or probe ends are uncertain for at least one entry.

The source of these data is publication PMC3646045.

This data set deals with RprY (rRprY, phosphorylated) (Porphyromonas gingivalis ATCC 33277) (UniProt B2RK10). Nature of the data set: EMSA. Conditions: 0-35.2 pmol, poly[d(I-C)], specificity by 50-100X unlabeled probe, pH and temperature not given, recombinant protein, residues 1-245, protein details: N-terminal 6xHis (pET28a), label: DIG, probe letters rebuilt from the primers and the genome. For orientation: In EMSA bound probe runs differently from free probe, usually more slowly.
For “AATAAAAATTTTCTCAGACCACGTTTTCAGAACTGAAATACACCGGATTTTTCAGTACACGTCAATCATTCGGAAGCGAAAAAAGGCAGTCTGAGCGAAAGAATGCGCCAGATTGTCAGTTCCGGACCCTGTGGCACCGGATTTGTCGTTCCTTTCGACGGAATAGAAACAAACAAAACATTAACAGATAATAATACACTATG (double strand) [htpG promoter]”, the binding result is listed as “no binding”.
Consider “CACCTTTTTTCCGACCGACTCCTCCTTTTTTCTGCCAACGAGCAGATGACTACACGTACAATCCTGCCATTCTGACAGCGAATAAGCACATTCCGACAGGAATCAGTCAGGAAATCGGCATTGGTATAGCTATTGATATAAAAATTGCGGAGCTACATAAGAGGCTTCCCATTTGTACAAGCAAACAATCAACTAACAATAACAAACCAAGCAACA (double strand) [groES promoter]”, for which the binding result is reported as “binds”.
As to “GCTGTGTTTGTTGTTACCAGACAAAATCCAACATCCATGCCAACGCCTAAAGACTGACATTTTGTCCTTTTTTACGTTTTCCCCCTCCTACCGTTTATATCCAAAGCAAGGATTATTCATTATAACACATGGTATAAGAAAGAAAGTAAAGGTTCCATACAGCTTATATGACCTAATCGAATACCTTTGTCCGTGGAAAATCAAAAAATACCCTACTATGAAACTCAGAAC (double strand) [clpB promoter]”, the binding result is reported as “binds”.
Take “TCCCATAATTCTATATTCGTTTTTTGTTGTTGTCTCGTTTTCTTTCGTTGTTTATGCCCCATCGAAAGGGTCGTACGCTACAACATAAACAATTTGCGTGCCAAAAATCAAACCGGCTCCGATACTGCCAAAAGGTGACAGAATGTCACTACATGAGGCACACAATAGCTCTTAAACATGACGAATAATGACTCTGTACA (double strand) [dnaK promoter]”: the binding result is recorded as “binds”.
